These are yes or no findings as the source states them, for the method shown. In cells and extracts the contact can be indirect. A yes stands for co-enrichment or nearness to the bait. Other partners may have been found.
B1: activity dependent neuroprotector homeobox (ADNP) (protein, UniProt Q9H2P0 1-1102)
chain: MFQLPVNNLGSLRKARKTVKKILSDIGLEYCKEHIEDFKQFEPNDFYLKNTTWEDVGLWDPSLTKNQDYRTKPFCCSACPFSSKFFSAYKSHFRNVHSEDFENRILLNCPYCTFNADKKTLETHIKIFHAPNASAPSSSLSTFKDKNKNDGLKPKQADSVEQAVYYCKKCTYRDPLYEIVRKHIYREHFQHVAAPYIAKAGEKSLNGAVPLGSNAREESSIHCKRCLFMPKSYEALVQHVIEDHERIGYQVTAMIGHTNVVVPRSKPLMLIAPKPQDKKSMGLPPRIGSLASGNVRSLPSQQMVNRLSIPKPNLNSTGVNMMSSVHLQQNNYGVKSVGQGYSVGQSMRLGLGGNAPVSIPQQSQSVKQLLPSGNGRSYGLGSEQRSQAPARYSLQSANASSLSSGQLKSPSLSQSQASRVLGQSSSKPAAAATGPPPGNTSSTQKWKICTICNELFPENVYSVHFEKEHKAEKVPAVANYIMKIHNFTSKCLYCNRYLPTDTLLNHMLIHGLSCPYCRSTFNDVEKMAAHMRMVHIDEEMGPKTDSTLSFDLTLQQGSHTNIHLLVTTYNLRDAPAESVAYHAQNNPPVPPKPQPKVQEKADIPVKSSPQAAVPYKKDVGKTLCPLCFSILKGPISDALAHHLRERHQVIQTVHPVEKKLTYKCIHCLGVYTSNMTASTITLHLVHCRGVGKTQNGQDKTNAPSRLNQSPSLAPVKRTYEQMEFPLLKKRKLDDDSDSPSFFEEKPEEPVVLALDPKGHEDDSYEARKSFLTKYFNKQPYPTRREIEKLAASLWLWKSDIASHFSNKRKKCVRDCEKYKPGVLLGFNMKELNKVKHEMDFDAEWLFENHDEKDSRVNASKTADKKLNLGKEDDSSSDSFENLEEESNESGSPFDPVFEVEPKISNDNPEEHVLKVIPEDASESEEKLDQKEDGSKYETIHLTEEPTKLMHNASDSEVDQDDVVEWKDGASPSESGPGSQQVSDFEDNTCEMKPGTWSDESSQSEDARSSKPAAKKKATMQGDREQLKWKNSSYGKVEGFWSKDQSQWKNASENDERLSNPQIEWQNSTIDSEDGEQFDNMTDGVAEPMHGSLAGVKLSSQQA
B2: DCX (protein, UniProt O43602 1-365)
chain: MELDFGHFDERDKTSRNMRGSRMNGLPSPTHSAHCSFYRTRTLQALSNEKKAKKVRFYRNGDRYFKGIVYAVSSDRFRSFDALLADLTRSLSDNINLPQGVRYIYTIDGSRKIGSMDELEEGESYVCSSDNFFKKVEYTKNVNPNWSVNVKTSANMKAPQSLASSNSAQARENKDFVRPKLVTIIRSGVKPRKAVRVLLNKKTAHSFEQVLTDITEAIKLETGVVKKLYTLDGKQVTCLHDFFGDDDVFIACGPEKFRYAQDDFSLDENECRVMKGNPSATAGPKASPTPQKTSAKSPGPMRRSKSPADSGNDQDANGTSSSQLSTPKSKQSPISTPTSPGSLRKHKDLYLPLSLDDSDSLGDSM

Sequences of proteins named here, by UniProt entry; tags and fusion partners are left off.
UniProt Q9P0L2: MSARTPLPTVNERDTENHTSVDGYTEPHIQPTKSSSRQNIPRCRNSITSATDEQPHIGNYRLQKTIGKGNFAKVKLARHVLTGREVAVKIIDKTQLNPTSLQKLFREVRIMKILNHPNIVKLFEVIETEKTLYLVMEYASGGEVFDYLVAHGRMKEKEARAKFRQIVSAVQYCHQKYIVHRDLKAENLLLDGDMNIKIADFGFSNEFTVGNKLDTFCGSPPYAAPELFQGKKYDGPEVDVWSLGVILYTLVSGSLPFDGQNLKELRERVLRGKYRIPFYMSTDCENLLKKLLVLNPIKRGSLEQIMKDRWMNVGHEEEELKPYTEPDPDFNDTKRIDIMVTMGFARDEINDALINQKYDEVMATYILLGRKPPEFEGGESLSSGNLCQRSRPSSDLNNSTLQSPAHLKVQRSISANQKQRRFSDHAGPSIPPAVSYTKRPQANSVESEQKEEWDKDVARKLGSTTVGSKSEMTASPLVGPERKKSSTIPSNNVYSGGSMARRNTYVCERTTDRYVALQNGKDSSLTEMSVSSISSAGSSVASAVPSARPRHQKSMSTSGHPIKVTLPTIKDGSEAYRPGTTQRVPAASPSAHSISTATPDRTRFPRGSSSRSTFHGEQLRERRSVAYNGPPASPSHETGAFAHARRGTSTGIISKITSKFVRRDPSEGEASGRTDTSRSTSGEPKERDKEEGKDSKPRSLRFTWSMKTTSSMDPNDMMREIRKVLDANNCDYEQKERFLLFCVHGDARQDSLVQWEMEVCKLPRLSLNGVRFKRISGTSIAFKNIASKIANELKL
UniProt Q96QT6: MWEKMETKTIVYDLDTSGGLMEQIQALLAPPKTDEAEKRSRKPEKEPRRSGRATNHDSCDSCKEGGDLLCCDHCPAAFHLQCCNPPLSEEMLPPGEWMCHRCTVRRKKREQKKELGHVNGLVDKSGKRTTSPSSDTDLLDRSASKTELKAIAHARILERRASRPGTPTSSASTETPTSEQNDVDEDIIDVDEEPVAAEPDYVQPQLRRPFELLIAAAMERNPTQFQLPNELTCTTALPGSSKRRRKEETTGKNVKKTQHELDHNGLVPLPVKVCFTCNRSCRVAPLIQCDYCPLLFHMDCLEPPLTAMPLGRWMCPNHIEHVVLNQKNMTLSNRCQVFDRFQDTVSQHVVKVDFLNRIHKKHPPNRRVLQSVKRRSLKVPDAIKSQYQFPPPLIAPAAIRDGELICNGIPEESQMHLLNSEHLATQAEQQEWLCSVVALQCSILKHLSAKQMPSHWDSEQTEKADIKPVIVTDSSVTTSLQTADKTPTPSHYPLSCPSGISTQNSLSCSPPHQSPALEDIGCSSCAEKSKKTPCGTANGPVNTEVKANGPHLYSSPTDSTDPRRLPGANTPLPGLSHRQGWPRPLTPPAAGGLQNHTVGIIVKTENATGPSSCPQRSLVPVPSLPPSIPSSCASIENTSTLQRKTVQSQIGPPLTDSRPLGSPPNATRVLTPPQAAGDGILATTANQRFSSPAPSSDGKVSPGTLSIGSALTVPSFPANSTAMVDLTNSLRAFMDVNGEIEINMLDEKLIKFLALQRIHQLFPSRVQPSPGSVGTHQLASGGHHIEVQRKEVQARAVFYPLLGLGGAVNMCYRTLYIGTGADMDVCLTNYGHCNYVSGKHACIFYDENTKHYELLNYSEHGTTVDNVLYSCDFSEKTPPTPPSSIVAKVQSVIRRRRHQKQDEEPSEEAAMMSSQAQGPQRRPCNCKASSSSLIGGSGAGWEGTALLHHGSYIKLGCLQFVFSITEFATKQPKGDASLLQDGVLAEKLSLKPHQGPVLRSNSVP
UniProt Q96BD5: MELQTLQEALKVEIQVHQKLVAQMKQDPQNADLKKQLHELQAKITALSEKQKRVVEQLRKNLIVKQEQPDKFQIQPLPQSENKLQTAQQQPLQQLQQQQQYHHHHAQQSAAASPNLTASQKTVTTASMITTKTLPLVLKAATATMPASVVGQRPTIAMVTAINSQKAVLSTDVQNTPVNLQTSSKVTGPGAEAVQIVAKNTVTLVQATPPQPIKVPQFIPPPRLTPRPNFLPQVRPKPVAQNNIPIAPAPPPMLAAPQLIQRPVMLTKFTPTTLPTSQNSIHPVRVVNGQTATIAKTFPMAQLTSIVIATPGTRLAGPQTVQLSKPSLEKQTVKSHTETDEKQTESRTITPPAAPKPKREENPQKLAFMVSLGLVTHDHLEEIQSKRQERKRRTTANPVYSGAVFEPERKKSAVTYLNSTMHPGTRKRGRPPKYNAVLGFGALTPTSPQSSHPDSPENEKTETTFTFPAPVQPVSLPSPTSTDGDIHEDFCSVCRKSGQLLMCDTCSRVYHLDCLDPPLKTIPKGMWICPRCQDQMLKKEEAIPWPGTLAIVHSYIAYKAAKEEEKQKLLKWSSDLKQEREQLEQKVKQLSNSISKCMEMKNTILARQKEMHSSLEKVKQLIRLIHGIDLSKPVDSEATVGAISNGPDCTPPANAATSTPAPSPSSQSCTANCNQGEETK

Target: T1, POU3F2 (human (endogenous in iPSC-derived NPCs)) (UniProt P20265)
T1 sequence: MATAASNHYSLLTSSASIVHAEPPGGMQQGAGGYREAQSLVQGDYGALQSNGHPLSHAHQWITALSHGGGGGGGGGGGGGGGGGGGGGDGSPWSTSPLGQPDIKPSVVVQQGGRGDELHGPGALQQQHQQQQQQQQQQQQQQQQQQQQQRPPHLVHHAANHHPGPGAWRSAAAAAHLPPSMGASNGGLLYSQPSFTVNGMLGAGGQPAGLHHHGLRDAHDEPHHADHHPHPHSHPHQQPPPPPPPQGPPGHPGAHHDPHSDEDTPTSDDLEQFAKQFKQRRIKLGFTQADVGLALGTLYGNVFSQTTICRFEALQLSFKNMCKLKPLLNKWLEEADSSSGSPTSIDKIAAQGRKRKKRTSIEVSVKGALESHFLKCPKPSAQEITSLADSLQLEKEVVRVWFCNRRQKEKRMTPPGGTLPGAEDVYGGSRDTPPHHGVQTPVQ
Experiment: affinity purification with mass spectrometry; immunoprecipitation of endogenous POU3F2 from pre-cleared 1% CHAPSO lysates of POU3F2^WT NPCs with anti-POU3F2 antibody cross-linked (BS3) to Protein G Dynabeads, overnight at 4°C, TMT-MS; POU3F2^MUT NPCs in parallel as negative controls

| Molecule | binding |
| --- | --- |
| MARK1 (from UniProt Q9P0L2 1-795) | binds |
| PHF12 (from UniProt Q96QT6 1-1004) | binds |
| PHF21A (from UniProt Q96BD5 1-680) | binds |
| B1 | binds |
| B2 | binds |
